Data taken from the odorant receptor screen of Mainland et al. (2015).
Several values for one entry are separate records, joined by “and”; a condition that tells them apart may be missing. Equal values may be shown once. Some of the results follow. Single wells; the ratio to wells without odorant was worked out here, and repeats agree poorly.

Experiments:
Assay in all cases: odorant receptor activation (CRE luciferase / Renilla) (fold of no-odor wells); higher = more activation
Settings in all cases: 100 µM
OR56B4 P277S clone 1224 = system: OR56B4 P277S clone 1224
OR5A1 I52V clone 1131 = system: OR5A1 I52V clone 1131
OR5A1 clone 1130 = system: OR5A1 clone 1130
OR5A1 clone 1507 = system: OR5A1 clone 1507
OR5A2 clone 1132 = system: OR5A2 clone 1132
OR5AC2 M200I clone 1490 = system: OR5AC2 M200I clone 1490
OR5AK2 M92I clone 1335 = system: OR5AK2 M92I clone 1335
OR5AK2 clone 1438 = system: OR5AK2 clone 1438
OR5AK3 clone 1336 = system: OR5AK3 clone 1336
OR5AL1 clone 1362 = system: OR5AL1 clone 1362

Row | Compound | odorant receptor activation (OR56B4 P277S clone 1224) | odorant receptor activation (OR5A1 I52V clone 1131) | odorant receptor activation (OR5A1 clone 1130) | odorant receptor activation (OR5A1 clone 1507) | odorant receptor activation (OR5A2 clone 1132) | odorant receptor activation (OR5AC2 M200I clone 1490) | odorant receptor activation (OR5AK2 M92I clone 1335) | odorant receptor activation (OR5AK2 clone 1438) | odorant receptor activation (OR5AK3 clone 1336) | odorant receptor activation (OR5AL1 clone 1362)
1 | CCCCCCCC=CC=O [2-decenal] | 0.91 | 0.786 | 1.53 | 1.49 | 1.22 | 1.3 | 0.593 | 1.29 | 1.31 | 2.38
2 | CC(=O)OC1CC2CCC1(C)C2(C)C (centres undefined) [isobornyl acetate] | 0.844 | 1.45 | 1.01 | 0.92 and 1.05 | 1.01 | 0.632 and 1.27 | 1.81 and 0.986 | 0.845 | 1.57 and 0.532 | 0.883
3 | CCCCCCOC(=O)CCC [hexyl butyrate] | 1.03 | 1.24 | 0.977 | 1.11 and 0.855 | 0.927 | 0.936 and 0.873 | 1.46 and 0.885 | 0.769 | 1.34 and 0.756 | 0.938
4 | COC(=O)c1ccccc1 [methyl benzoate] | 0.961 | 1.23 | 1.01 | 0.931 and 1.1 | 1.11 | 0.798 and 1.04 | 0.559 | 0.756 | 0.488 | 0.853
5 | O=C1CCCCC1 [Cyclohexanone] | 0.792 | 0.875 | 0.637 | 0.674 and 1.03 | 0.944 | 0.618 and 0.962 | 0.655 | 0.799 | 0.547 | 0.862
6 | CC(C)C(=O)O [isobutyric acid] | 1.19 | 1.21 | 1 | 0.96 and 1.11 | 0.927 | 0.719 and 1.1 | 1.49 and 0.857 | 0.733 | 1.48 and 0.825 | 0.954
7 | CC1COCc2cc3c(cc21)C(C)(C)C(C)C3(C)C (centres undefined) [galaxolide] | 0.787 | 0.909 | 0.697 | 8.34 and 4.58 | 0.841 | – | – | 2.93 | 5.08 and 5.04 | 4.38
8 | C=C(C)C1CC=CCC1 (centres undefined) [r-limonene] | 1.15 and 0.472 | 0.831 and 0.458 | 1.15 and 0.632 | 1.13 and 0.946 and 0.754 | – | 0.999 and 0.577 and 1.2 | – | 1.45 and 0.833 | 0.901 and 0.394 | 1.27 and 1.16
9 | C=CCc1ccc(O)c(OC)c1 [eugenol] | 2.09 and 1.17 | 1.95 and 1.27 | 2.33 and 1.21 | 1.45 and 0.906 and 1.24 | – | 2.11 and 0.834 and 1.34 | 1.45 and 1.46 | 1.48 and 1.39 | – | 1.24 and 1.18
10 | C=CC(C)(O)CCC=C(C)C (centres undefined) [linalool] | 0.899 | 1.08 | 1.03 | 1.11 | 0.958 | 0.892 | 0.815 | 1.2 | 0.953 | 1.12
11 | O=CCc1ccccc1 [phenyl acetaldehyde] | 1.17 | 0.917 | 1.44 | 1.03 | 1.29 | 1.35 | 1.2 | 1.58 | 1.57 | 1.6
